Test results reported in PubChem BioAssay AID2685 (National Center for Advancing Translational Sciences (NCATS), 2010).
The list shows a part of the results. These are further read-outs of the screen, such as a control signal, another cell line or another target. No call is given for them. Most of these compounds were active or inconclusive in the main read-out, so they are no random draw. The note in brackets gives the kind of curve behind each potency; many fits are weak.

Assay: qHTS Assay for Lipid Storage Modulators in Drosophila S3 Cells;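 as to cell number change: cells counted by Cell Tracker Red CMTPX staining in the red channel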
Conditions: BODIPY lipid droplet fluorescence, 18-24 h; for cell number change: measured here: cell count max response, cells fed with added oleic acid
Outline: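 Laser-scanning cytometry quantifies lipid droplet accumulation (500–530 nm total intensity; droplet/cell object ratio) in oleic acid-fed (400 uM added) Drosophila S3 cells treated with a concentration series. 20 uM Triacsin C defined 100% inhibition.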

[1] = measured here: cell number channel AC50, cells fed with added oleic acid
[2] = measured here: lipid fluorescence (Fed channel) AC50, cells fed with added oleic acid

| Compound | cell number change [%] | AC50 [1] | AC50 [2] |
| --- | --- | --- | --- |
| O=C(NC1CCN(c2ncccn2)CC1)c1cccc(F)c1 | 37.3 | 29.1 µM [rising, single point] | – |
| NC(=O)Cn1nnc(-c2ccccc2NC(=O)c2cnccn2)n1 | 49.7 | 0.58 µM [rising, full curve] | 0.58 µM [rising, full curve] |
| COc1cc(NC(=O)CSc2nc3[nH]ncc3c(=O)n2-c2ccc(Cl)cc2)cc(OC)c1 | 6.42 | – | – |
| CCSc1nnc(-c2cccc(S(=O)(=O)N(C)C)c2)n1-c1cc(OC)ccc1OC | -2.69 | – | 18.4 µM [rising, partial curve] |
| O=C(NCCC(=O)N1CCc2ccccc21)c1ccco1 | 2.78 | 0.092 µM [rising, full curve, poor fit] | – |
| O=C(c1ccc(S(=O)(=O)N2CCOCC2)cc1)N1CCN(c2cccc(Cl)c2)CC1 | -40.3 | 23.1 µM [falling, partial curve, poor fit] | – |
| O=c1oc(-c2ccco2)nc2ccccc12 | -33.1 | 16.4 µM [falling, partial curve, poor fit] | 32.6 µM [falling, single point] |
| COc1ccc(-c2cc3c(=O)n(CC(=O)NCCCN4CCN(Cc5ccccc5)CC4)ncn3n2)cc1 | 49.5 | 16.4 µM [rising, single point] | – |
| Cc1nnc(NC(=O)CCS(=O)(=O)Cc2ccccc2)s1 | 17 | – | – |
| CC#CC[N+](C)(CC#CC)CC(=O)c1ccccc1 | -11.3 | – | – |
| O=C(NC1CCCC1)C(Cc1ccccc1)n1cccc1 (stereo not given) | -8.46 | – | – |
| COc1cc(C=O)ccc1OCCOc1ccccc1[N+](=O)[O-] | 9.81 | – | 10.3 µM [rising, partial curve] |
| CCOc1ccc(C(=O)NCC(=O)OCC(=O)N2CCC(C)CC2)cc1 | 1.26 | 0.00731 µM [falling, full curve, poor fit] | 20.6 µM [falling, partial curve] |
| Cc1ccc(C)c(N2C(=N)S/C(=C\c3ccc(-c4ccccc4C(=O)O)o3)C2=O)c1 | 30.7 | – | – |
| COc1ccc(OCCNC(=O)C(Cc2c[nH]c3ccccc23)NC(C)=O)cc1 (stereo not given) | – | – | 6.51 µM [rising, single point] |
| Cc1ccc(NC(=O)O/N=C/c2ccc(Br)cc2)cc1 | – | – | 14.6 µM [rising, partial curve] |
| CC1=CC(=C(C#N)C#N)c2ccccc2N1C | 14.2 | – | – |
| Cc1cc2c(cc1C)C(c1ccsc1)CC(=O)N2 (stereo not given) | -33.3 | – | 32.6 µM [falling, single point] |
| Oc1ccc(Br)cc1-c1ccnn1-c1ccccc1 | -25.4 | – | – |
| Cc1cccc(NC(=O)Cn2nnc(-c3cccs3)n2)c1C | -14.9 | – | 2.91 µM [rising, single point] |
| COc1ccc(C2C(C(=O)Nc3cccnc3)=C(C)Nc3nc(-c4ccco4)nn32)cc1 (stereo not given) | -7.54 | – | 6.51 µM [falling, full curve, poor fit] |
| COc1cccc(/C=C/C(=O)c2ccc(NS(=O)(=O)c3ccc(C)cc3)cc2)c1 | 1.06 | 0.651 µM [falling, single point] | 0.184 µM [falling, full curve] |

An excerpt of these results, comma-delimited.
Compound,cell number change [%],AC50 [1],AC50 [2]
NC(=O)Cn1nnc(-c2ccccc2NC(=O)c2cnccn2)n1,49.7,"0.58 µM [rising, full curve]","0.58 µM [rising, full curve]"
COc1cc(NC(=O)CSc2nc3[nH]ncc3c(=O)n2-c2ccc(Cl)cc2)cc(OC)c1,6.42,–,–
CCSc1nnc(-c2cccc(S(=O)(=O)N(C)C)c2)n1-c1cc(OC)ccc1OC,-2.69,–,"18.4 µM [rising, partial curve]"
O=C(NCCC(=O)N1CCc2ccccc21)c1ccco1,2.78,"0.092 µM [rising, full curve, poor fit]",–
O=C(c1ccc(S(=O)(=O)N2CCOCC2)cc1)N1CCN(c2cccc(Cl)c2)CC1,-40.3,"23.1 µM [falling, partial curve, poor fit]",–
O=c1oc(-c2ccco2)nc2ccccc12,-33.1,"16.4 µM [falling, partial curve, poor fit]","32.6 µM [falling, single point]"
COc1ccc(-c2cc3c(=O)n(CC(=O)NCCCN4CCN(Cc5ccccc5)CC4)ncn3n2)cc1,49.5,"16.4 µM [rising, single point]",–
O=C(NC1CCCC1)C(Cc1ccccc1)n1cccc1 (stereo not given),-8.46,–,–
COc1cc(C=O)ccc1OCCOc1ccccc1[N+](=O)[O-],9.81,–,"10.3 µM [rising, partial curve]"
Cc1ccc(C)c(N2C(=N)S/C(=C\c3ccc(-c4ccccc4C(=O)O)o3)C2=O)c1,30.7,–,–
COc1ccc(OCCNC(=O)C(Cc2c[nH]c3ccccc23)NC(C)=O)cc1 (stereo not given),–,–,"6.51 µM [rising, single point]"
Oc1ccc(Br)cc1-c1ccnn1-c1ccccc1,-25.4,–,–
Cc1cccc(NC(=O)Cn2nnc(-c3cccs3)n2)c1C,-14.9,–,"2.91 µM [rising, single point]"
COc1ccc(C2C(C(=O)Nc3cccnc3)=C(C)Nc3nc(-c4ccco4)nn32)cc1 (stereo not given),-7.54,–,"6.51 µM [falling, full curve, poor fit]"

The results go on.

| Compound | cell number change [%] | AC50 [1] | AC50 [2] |
| --- | --- | --- | --- |
| COc1cccc(C(=O)Nc2ccc(NC(=O)C3CCCCC3)nc2)c1 | -2.02 | – | 3.26 µM [falling, single point] |
| Cc1cccc(C2CC3(CC(C)(C)NC(=S)N3)Oc3cc(O)ccc32)c1 (stereo not given) | -19.9 | – | 0.731 µM [falling, single point] |
| CCn1c(SCC(=O)N/N=C(\C)c2ccncc2)nnc1-c1ccccc1 | 31.4 | – | 0.00411 µM [rising, full curve, poor fit] |
| CC(C)(C)NC(=O)C(c1ccc(F)cc1)N(C(=O)CCC(=O)Nc1ccccn1)C1CCCC1 (stereo not given) | 17.9 | – | – |
| O=C(NCCN1CCOCC1)c1cccc(NS(=O)(=O)c2ccc(Br)cc2)c1 | – | – | 6.51 µM [rising, single point] |
| O=C(CCc1ccccc1)N=C1SC2CS(=O)(=O)CC2N1Cc1ccccc1 (stereo not given) | 8.9 | – | – |
| COc1cc(C(=O)OC2CCOC2=O)c([N+](=O)[O-])cc1OC (stereo not given) | 2.1 | – | 20.6 µM [falling, single point] |
| COc1ccc(N2CCN(C(=O)Cn3cncn3)CC2)cc1 | 1.04 | – | – |
| Cc1nnc(SCc2ccc(C(=O)O)cc2)s1 | -33.7 | 3.66 µM [falling, full curve] | 1.3 µM [falling, full curve, poor fit] |
| c1cncc(-c2nn[nH]n2)c1 | -1 | – | – |
| CC(=O)c1cnn(-c2ccc(Cl)c(Cl)c2Cl)c1C | 14.2 | – | 0.058 µM [rising, full curve] |
| CCOc1ccc(CCNC(=O)COC(=O)/C=C/c2ccccc2)cc1OCC | -96.1 | 10.3 µM [falling, partial curve] | 14.6 µM [falling, partial curve] |
| O=C(Nc1c(C(=O)c2ccccc2)oc2ccccc12)c1cc(-c2ccccc2O)n[nH]1 | -27 | – | – |
| CC(On1nnc2ccccc21)C(=O)N1CCN(Cc2ccccc2)CC1 (stereo not given) | 27.6 | – | – |
| Cc1ccc(C(=O)Nc2ccc(C(=O)O)cc2NC(=O)c2ccc(C)cc2)cc1 | 4.53 | – | 3.66 µM [rising, single point] |
| CCCCc1c(O)nc(SCC(=O)Nc2ccc3c(c2)CCC3)[nH]c1=O | 20.2 | – | 0.116 µM [falling, full curve, poor fit] |
| COC(=O)c1cc([N+](=O)[O-])ccc1N1CCN(Cc2ccccc2)CC1 | 0.627 | – | 2.06 µM [rising, full curve, poor fit] |
| O=C(CN1CCCc2ccccc21)N/N=C/c1ccc(O)cc1O | -16.2 | – | 18.4 µM [falling, single point] |
| COCCN1C(=S)N[C@@H](c2ccccc2)C(C(=O)OC)=C1C | 4.3 | – | 29.1 µM [rising, single point] |
| CCOc1ccc(-n2c(=O)c3sccc3n(Cc3cccc([N+](=O)[O-])c3)c2=O)cc1 | – | 6.51 µM [rising, partial curve, poor fit] | – |
| CC1CCC(NC(=O)CN2CCCN(Cc3ccc(F)cc3Cl)C2=O)CC1 (stereo not given) | 14 | – | 0.0082 µM [falling, full curve, poor fit] |
| O=C(CNc1cccc(C(F)(F)F)c1)Nc1cccc(S(=O)(=O)N2CCCC2)c1 | 18.8 | – | 0.731 µM [falling, partial curve, poor fit] |

| Compound | cell number change [%] | AC50 [1] | AC50 [2] |
| --- | --- | --- | --- |
| O=C(c1cccc(Cl)c1)N1CCN(c2ncccn2)CC1 | -4.96 | – | – |
| COc1ccccc1NC1C=CS(=O)(=O)C1 (stereo not given) | -10.1 | – | – |
| O=C(CN1C(=O)C2CC=CCC2C1=O)Nc1nnc(SCc2ccc(F)cc2)s1 (stereo not given) | 1.97 | – | – |
| COc1ccc(C(=O)NCC2(N3CCCCC3)CCCCC2)cc1S(=O)(=O)N(C)C | -0.794 | – | 14.6 µM [rising, partial curve] |
| COc1cccc(CNCCSc2nnnn2C)c1OC | -54.4 | 3.66 µM [falling, full curve] | 3.66 µM [falling, full curve] |
| CC(=O)N(CCc1cccc(C)c1)Cc1cc2ccc(C)cc2[nH]c1=O | -6.3 | – | 7.31 µM [falling, partial curve] |
| O=C(Nc1ccccc1)C1=C(O)CC(c2ccc(Cl)cc2)N2CCN=C12 (stereo not given) | -59.1 | 20.6 µM [falling, single point] | 29.1 µM [falling, single point] |
| COc1ccc(-c2sc3cc4c(cc3c2C#CCO)OCO4)cc1 | -14.2 | – | 1.16 µM [rising, single point] |
| Cn1c(C2=C(O)CN(c3ccccc3)C2=N)nc2ccccc21 | – | 0.58 µM [falling, single point] | 0.58 µM [falling, single point] |
| COc1ccc(C(O)(CC(C)C)C(CN2CCOCC2)c2ccccc2)cc1 (stereo not given) | 47.2 | 29.1 µM [rising, single point] | – |
| O=C(CSc1ccccn1)Nc1ccc2c(c1)OCO2 | 18.6 | – | 1.84 µM [rising, partial curve] |
| Cc1c(NC(=O)c2c([N+](=O)[O-])cnn2C)c(=O)n(-c2ccccc2)n1C | 10.5 | – | – |
| CC(C(=O)NC1CCCC1)N1CCN(Cc2ccccc2)CC1 (stereo not given) | -24.3 | – | 18.4 µM [falling, single point] |
| Cc1ccc(CCNC(=O)C2CCC(CNc3c(N4CCCC4)c(=O)c3=O)CC2)cc1 (stereo not given) | 31.3 | 0.231 µM [rising, full curve, poor fit] | – |
| O=C(O)C(Cc1ccccc1-c1ccccc1)C(=O)O | 17.7 | – | 3.26 µM [rising, partial curve, poor fit] |
| Cc1cc(Br)c(NC(=O)COC(=O)CSc2nnc(-c3ccc(Cl)cc3)o2)c(Br)c1 | – | 0.58 µM [rising, single point] | – |
| CCc1c(C)nc(SCC(N)=O)c(C#N)c1C | 20.9 | 3.66 µM [rising, single point] | – |
| Cc1cccn2c(=O)c3cc(S(=O)(=O)c4ccc(Br)cc4)c(=N)n(C4CCCCC4)c3nc12 | 13.4 | – | – |
| CN1/C(=C\C(=O)c2cccc(S(=O)(=O)N3CCCCC3)c2)C(C)(C)c2ccccc21 | 8.7 | – | 1.84 µM [rising, partial curve] |
| N=c1oc2cc(O)ccc2cc1C(=O)Nc1ccc(Cl)cc1 | 73.9 | 32.6 µM [rising, partial curve] | – |
| Cc1ccccc1S(=O)(=O)N(CC(O)CN1C(=O)NC(C)(C)C1=O)c1ccccc1 (stereo not given) | 3.86 | – | 0.082 µM [falling, full curve, poor fit] |
